# Reference: the supplement of paper PMC10849652
# The chains behind the UniProt entries cited, without tags or fusion partners. Where a name states a change or a piece, a line headed by the entry shows the natural chain unless it says otherwise.
# UniProt Q15785: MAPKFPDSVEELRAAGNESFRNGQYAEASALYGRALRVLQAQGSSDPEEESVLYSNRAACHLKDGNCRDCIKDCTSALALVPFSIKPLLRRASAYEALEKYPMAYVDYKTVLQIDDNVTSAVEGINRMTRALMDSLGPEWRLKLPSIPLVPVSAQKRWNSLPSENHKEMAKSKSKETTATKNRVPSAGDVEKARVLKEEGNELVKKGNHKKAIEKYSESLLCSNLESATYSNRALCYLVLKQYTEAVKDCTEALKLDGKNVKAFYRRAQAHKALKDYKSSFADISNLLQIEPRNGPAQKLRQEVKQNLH
# UniProt O60704: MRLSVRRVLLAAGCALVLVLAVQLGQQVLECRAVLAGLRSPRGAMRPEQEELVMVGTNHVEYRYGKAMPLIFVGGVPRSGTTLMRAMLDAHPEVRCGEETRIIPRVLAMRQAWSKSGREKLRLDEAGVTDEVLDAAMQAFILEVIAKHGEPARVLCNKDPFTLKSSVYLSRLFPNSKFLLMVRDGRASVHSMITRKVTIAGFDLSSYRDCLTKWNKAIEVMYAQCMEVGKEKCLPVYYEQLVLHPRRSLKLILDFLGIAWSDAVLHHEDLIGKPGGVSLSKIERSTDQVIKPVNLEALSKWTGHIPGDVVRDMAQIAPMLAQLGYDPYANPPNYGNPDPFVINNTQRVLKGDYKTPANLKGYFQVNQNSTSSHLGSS
# UniProt Q5JTV8: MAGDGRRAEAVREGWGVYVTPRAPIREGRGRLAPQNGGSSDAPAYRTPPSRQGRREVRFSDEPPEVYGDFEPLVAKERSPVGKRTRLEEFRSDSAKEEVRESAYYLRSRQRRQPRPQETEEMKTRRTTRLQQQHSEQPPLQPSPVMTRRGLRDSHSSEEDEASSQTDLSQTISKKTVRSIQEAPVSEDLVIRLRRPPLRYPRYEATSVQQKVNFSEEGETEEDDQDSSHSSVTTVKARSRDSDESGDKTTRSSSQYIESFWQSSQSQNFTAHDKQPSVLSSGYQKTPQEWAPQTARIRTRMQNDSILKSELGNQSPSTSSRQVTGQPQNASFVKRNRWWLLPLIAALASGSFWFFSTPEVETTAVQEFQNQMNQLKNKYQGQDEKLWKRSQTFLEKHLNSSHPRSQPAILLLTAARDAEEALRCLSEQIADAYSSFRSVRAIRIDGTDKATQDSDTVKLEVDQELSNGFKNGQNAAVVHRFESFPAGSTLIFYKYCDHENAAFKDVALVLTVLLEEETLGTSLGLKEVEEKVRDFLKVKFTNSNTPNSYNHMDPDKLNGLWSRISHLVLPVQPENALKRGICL
# UniProt O43617, whole entry, looked up: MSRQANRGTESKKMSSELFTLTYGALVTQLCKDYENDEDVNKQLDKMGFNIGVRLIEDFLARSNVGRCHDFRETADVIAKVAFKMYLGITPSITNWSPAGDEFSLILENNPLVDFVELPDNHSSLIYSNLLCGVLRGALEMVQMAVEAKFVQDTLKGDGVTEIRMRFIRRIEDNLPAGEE
# UniProt Q9NS69: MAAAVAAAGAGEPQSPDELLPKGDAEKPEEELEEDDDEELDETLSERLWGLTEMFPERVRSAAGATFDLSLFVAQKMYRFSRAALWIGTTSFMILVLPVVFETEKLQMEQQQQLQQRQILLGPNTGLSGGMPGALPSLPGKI
# UniProt Q9BSV6: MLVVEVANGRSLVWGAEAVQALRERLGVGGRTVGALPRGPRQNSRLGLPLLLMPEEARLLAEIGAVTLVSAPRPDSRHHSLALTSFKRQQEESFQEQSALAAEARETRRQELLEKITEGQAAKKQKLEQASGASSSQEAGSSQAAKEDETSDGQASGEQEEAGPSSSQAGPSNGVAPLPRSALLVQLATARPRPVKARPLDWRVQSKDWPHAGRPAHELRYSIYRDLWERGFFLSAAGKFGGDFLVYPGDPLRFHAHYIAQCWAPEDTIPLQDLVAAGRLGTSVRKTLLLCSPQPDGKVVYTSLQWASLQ
# UniProt Q15642: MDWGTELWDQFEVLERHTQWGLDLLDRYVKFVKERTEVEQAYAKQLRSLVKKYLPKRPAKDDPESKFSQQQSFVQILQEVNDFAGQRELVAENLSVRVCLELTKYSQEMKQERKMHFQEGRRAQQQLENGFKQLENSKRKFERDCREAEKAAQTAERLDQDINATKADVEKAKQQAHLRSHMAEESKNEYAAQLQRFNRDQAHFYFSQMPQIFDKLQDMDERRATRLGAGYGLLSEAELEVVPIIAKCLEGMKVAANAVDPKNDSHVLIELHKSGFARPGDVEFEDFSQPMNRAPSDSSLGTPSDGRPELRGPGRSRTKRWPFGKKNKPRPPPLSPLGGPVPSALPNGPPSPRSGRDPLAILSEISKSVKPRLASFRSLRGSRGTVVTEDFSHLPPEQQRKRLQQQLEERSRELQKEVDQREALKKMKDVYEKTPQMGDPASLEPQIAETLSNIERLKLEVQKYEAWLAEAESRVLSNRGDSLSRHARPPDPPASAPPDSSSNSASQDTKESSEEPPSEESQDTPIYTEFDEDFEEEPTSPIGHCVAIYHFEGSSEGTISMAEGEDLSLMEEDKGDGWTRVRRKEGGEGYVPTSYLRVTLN
# UniProt O14657: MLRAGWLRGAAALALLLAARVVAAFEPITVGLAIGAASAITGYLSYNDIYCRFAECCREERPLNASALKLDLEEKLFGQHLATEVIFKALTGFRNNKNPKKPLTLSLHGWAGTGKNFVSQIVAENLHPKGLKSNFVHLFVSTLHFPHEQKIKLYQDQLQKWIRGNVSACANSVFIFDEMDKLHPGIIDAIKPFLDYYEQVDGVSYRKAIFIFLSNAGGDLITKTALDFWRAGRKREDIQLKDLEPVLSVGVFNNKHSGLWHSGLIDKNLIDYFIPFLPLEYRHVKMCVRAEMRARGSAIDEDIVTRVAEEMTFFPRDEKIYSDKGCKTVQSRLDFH
# UniProt P48553, whole entry, looked up: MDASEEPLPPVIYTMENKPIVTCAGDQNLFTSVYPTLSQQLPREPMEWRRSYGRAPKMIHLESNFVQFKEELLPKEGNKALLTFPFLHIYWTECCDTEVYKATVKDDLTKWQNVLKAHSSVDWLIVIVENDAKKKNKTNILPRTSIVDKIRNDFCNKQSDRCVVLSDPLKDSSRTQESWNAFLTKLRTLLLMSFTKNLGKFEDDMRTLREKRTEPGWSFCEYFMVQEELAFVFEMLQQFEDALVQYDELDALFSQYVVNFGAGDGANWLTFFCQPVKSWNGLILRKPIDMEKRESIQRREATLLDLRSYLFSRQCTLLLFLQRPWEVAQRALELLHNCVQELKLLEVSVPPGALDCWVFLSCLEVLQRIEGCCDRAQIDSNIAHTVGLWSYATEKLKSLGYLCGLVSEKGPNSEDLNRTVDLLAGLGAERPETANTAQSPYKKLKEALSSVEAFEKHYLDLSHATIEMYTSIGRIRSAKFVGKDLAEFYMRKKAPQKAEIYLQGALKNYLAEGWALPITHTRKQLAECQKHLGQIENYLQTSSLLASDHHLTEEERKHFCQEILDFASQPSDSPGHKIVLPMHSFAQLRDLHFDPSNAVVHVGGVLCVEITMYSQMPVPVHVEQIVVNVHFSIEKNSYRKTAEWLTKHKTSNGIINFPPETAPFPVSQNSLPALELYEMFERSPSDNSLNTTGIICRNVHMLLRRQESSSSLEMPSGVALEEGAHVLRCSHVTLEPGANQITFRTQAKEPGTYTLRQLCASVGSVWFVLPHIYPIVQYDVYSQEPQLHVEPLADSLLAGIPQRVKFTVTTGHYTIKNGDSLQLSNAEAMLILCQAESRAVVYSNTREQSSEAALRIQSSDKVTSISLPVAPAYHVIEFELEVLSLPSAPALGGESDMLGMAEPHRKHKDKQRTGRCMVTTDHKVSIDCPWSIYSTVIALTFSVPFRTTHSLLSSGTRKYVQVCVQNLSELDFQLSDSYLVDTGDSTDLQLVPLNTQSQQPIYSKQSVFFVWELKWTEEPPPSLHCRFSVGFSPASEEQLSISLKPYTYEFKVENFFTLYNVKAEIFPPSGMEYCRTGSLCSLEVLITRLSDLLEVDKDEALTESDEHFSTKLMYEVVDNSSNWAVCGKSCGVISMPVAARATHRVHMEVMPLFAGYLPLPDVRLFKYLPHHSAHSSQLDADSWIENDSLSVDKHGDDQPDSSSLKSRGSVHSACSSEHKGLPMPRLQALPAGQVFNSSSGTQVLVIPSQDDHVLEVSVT
# UniProt P11388: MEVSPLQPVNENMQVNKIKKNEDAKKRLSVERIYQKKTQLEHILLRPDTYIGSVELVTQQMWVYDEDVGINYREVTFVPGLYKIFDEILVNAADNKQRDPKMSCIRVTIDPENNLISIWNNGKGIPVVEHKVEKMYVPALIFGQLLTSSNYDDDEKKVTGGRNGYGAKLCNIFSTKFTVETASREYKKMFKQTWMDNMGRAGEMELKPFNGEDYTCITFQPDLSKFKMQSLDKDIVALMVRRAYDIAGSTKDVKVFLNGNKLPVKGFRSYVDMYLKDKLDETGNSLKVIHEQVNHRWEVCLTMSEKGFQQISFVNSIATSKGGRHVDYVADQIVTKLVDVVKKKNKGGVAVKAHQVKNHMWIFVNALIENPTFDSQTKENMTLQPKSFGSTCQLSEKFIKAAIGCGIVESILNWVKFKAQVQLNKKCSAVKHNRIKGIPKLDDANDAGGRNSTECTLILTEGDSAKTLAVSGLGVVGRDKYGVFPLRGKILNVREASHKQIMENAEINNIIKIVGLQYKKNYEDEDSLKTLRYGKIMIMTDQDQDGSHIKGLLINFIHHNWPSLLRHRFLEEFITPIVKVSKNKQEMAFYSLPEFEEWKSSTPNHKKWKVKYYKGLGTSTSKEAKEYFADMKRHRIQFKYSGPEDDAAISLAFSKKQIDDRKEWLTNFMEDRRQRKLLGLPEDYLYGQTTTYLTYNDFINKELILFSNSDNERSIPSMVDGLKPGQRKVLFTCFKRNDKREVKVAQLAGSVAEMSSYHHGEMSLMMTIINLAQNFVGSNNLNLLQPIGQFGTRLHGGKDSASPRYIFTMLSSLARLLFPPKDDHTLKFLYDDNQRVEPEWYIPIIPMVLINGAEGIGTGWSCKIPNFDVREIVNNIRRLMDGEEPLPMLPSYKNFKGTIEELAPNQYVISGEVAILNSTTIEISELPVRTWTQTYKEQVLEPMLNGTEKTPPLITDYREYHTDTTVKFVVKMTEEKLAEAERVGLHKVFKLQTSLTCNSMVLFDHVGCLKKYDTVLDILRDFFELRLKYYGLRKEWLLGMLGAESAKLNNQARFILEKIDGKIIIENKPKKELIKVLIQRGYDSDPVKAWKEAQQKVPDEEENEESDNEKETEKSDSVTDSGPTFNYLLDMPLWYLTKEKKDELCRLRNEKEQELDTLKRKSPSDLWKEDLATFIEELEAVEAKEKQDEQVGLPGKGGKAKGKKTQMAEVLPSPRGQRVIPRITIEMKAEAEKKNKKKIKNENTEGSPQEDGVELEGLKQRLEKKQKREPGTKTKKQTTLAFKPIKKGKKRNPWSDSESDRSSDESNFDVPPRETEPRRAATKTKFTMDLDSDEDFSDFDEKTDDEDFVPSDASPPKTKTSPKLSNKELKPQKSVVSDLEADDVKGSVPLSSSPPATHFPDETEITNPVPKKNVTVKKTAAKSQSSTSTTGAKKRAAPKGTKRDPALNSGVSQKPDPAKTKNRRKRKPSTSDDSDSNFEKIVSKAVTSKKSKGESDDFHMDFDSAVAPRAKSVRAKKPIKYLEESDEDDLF
# UniProt Q9UL33, whole entry, looked up: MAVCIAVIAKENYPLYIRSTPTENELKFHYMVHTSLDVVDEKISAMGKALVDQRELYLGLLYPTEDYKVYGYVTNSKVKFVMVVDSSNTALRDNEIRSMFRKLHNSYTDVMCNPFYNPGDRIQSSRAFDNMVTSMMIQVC
# UniProt Q12931: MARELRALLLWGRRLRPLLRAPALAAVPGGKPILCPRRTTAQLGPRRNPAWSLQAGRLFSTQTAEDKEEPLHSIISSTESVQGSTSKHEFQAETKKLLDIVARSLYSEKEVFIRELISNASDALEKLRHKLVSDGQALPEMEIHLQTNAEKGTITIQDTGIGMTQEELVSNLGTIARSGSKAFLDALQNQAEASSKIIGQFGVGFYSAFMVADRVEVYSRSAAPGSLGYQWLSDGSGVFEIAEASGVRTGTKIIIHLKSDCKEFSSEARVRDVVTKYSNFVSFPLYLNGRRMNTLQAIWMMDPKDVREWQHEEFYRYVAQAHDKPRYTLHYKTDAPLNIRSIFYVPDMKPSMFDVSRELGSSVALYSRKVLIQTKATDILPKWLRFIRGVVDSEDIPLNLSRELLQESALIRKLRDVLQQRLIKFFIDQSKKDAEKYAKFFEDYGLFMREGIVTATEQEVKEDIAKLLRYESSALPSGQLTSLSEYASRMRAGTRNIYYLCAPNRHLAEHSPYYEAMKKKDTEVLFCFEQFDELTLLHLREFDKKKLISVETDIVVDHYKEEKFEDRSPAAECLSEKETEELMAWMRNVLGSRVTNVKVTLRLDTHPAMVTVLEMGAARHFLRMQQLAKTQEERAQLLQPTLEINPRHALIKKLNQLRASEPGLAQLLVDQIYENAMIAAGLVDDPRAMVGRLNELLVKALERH
# This is one part of the list.
# Columns and labels:
# Test in all cases: log2 fold change, soluble protein after heating vs DMSO (PISA); higher = thermal stabilisation; K562 cells, 10 uM, 30 min; active = over 0.2 and 3.5 SD of the protein, either way, in both replicates (recomputed)
# [1] = compound: CS(=O)(=O)c1ccc(-c2cnc(N)c(C(=O)Nc3ccccc3)n2)cc1
# Outline: (§1)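 Quantification of soluble protein used TMTpro 16plex LC-MS/MS, with channel sums equalised. Samples were the supernatant after 21,000xg for 90 min of pooled aliquots from K562 cells (2×10^6 cells/mL) treated with 10 μM compound for 30 min, heated for 3 min over 48°C-58°C, and extracted in PBS with 0.5% NP-40 at 4°C. Values, from duplicates, describe thermal stability against control samples on a log2 fold-change scale.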
# crizotinib = compound: C[C@@H](Oc1cc(-c2cnn(C3CCNCC3)c2)cnc1N)c1c(Cl)ccc(F)c1Cl [crizotinib]
# Outline: as §1
# [2] = compound: C[C@@H]1COCCN1C2=NC(=NC(=C2)C3(CC3)S(=O)(=O)C)C4=C5C=CNC5=CC=C4
# Outline: as §1
# [3] = compound: C[C@H](C1=CC=C(C=C1)C(=O)NC2=C3C=CNC3=NC=C2)N
# Outline: as §1
# duvelisib = compound: C[C@H](Nc1ncnc2nc[nH]c12)c1cc2cccc(Cl)c2c(=O)n1-c1ccccc1 [duvelisib]
# Outline: as §1
# gandotinib = compound: Cc1cc(Nc2cc(CN3CCOCC3)c3nc(C)c(Cc4ccc(Cl)cc4F)n3n2)n[nH]1 [gandotinib]
# Outline: as §1
# tozasertib = compound: Cc1cc(Nc2cc(N3CCN(C)CC3)nc(Sc3ccc(NC(=O)C4CC4)cc3)n2)n[nH]1 [tozasertib]
# Outline: as §1
# [4] = compound: Cc1cc(SCc2sc(-c3ccc(C(F)(F)F)cc3)nc2C)ccc1OCC(=O)O
# Outline: as §1
# doramapimod = compound: Cc1ccc(-n2nc(C(C)(C)C)cc2NC(=O)Nc2ccc(OCCN3CCOCC3)c3ccccc23)cc1 [doramapimod]
# Outline: as §1
# ispinesib = compound: Cc1ccc(C(=O)N(CCCN)[C@@H](c2nc3cc(Cl)ccc3c(=O)n2Cc2ccccc2)C(C)C)cc1 [ispinesib]
# Outline: as §1
# bafetinib = compound: Cc1ccc(NC(=O)c2ccc(CN3CC[C@H](N(C)C)C3)c(C(F)(F)F)c2)cc1Nc1nccc(-c2cncnc2)n1 [bafetinib]
# Outline: as §1
# [5] = compound: Cc1cccc(CC(=O)N2CCc3c2ccc(-c2cn(C)c4ncnc(N)c24)c3F)n1
# Outline: as §1
# nilotinib = compound: Cc1cn(-c2cc(NC(=O)c3ccc(C)c(Nc4nccc(-c5cccnc5)n4)c3)cc(C(F)(F)F)c2)cn1 [nilotinib]
# Outline: as §1
# [6] = compound: Cc1nc(Nc2n[nH]c3c2CN(C(=O)N[C@H](CN(C)C)c2ccccc2)C3(C)C)c2sccc2n1
# Outline: as §1
# dasatinib = compound: Cc1nc(Nc2ncc(C(=O)Nc3c(C)cccc3Cl)s2)cc(N2CCN(CCO)CC2)n1 [dasatinib]
# Outline: as §1
# [7] = compound: Cc1ncc(-c2ccnc(Nc3ccc(S(C)(=O)=O)cc3)n2)n1C(C)C
# Outline: as §1
# [8] = compound: Cn1cc(-c2ccc3c(c2)CCN3C(=O)Cc2cccc(C(F)(F)F)c2)c2c(N)ncnc21
# Outline: as §1
# [9] = compound: Cn1cc(-c2ccc3nnc(C(F)(F)c4ccc5ncccc5c4)n3n2)cn1
# Outline: as §1
# tipifarnib = compound: Cn1cncc1[C@@](N)(c1ccc(Cl)cc1)c1ccc2c(c1)c(-c1cccc(Cl)c1)cc(=O)n2C [tipifarnib]
# Outline: as §1
# mubritinib = compound: FC(F)(F)c1ccc(/C=C/c2nc(COc3ccc(CCCCn4ccnn4)cc3)co2)cc1 [mubritinib]
# Outline: as §1
Target,log2 fold change [1],log2 fold change (crizotinib),log2 fold change [2],log2 fold change [3],log2 fold change (duvelisib),log2 fold change (gandotinib),log2 fold change (tozasertib),log2 fold change [4],log2 fold change (doramapimod),log2 fold change (ispinesib),log2 fold change (bafetinib),log2 fold change [5],log2 fold change (nilotinib),log2 fold change [6],log2 fold change (dasatinib),log2 fold change [7],log2 fold change [8],log2 fold change [9],log2 fold change (tipifarnib),log2 fold change (mubritinib)
TRRAP (UniProt Q9Y4A5),inactive: -0.007,inactive: 0.018,inactive: -0.009,inactive: -0.02,inactive: 0.021,inactive: -0.021,inactive: -0.017,inactive: -0.031,inactive: 0.015,inactive: 0.002,inactive: -0.05,inactive: 0.02,inactive: 0,inactive: 0.02,inactive: 0.03,inactive: -0.041,inactive: -0.002,inactive: 0.006,inactive: 0.002,inactive: 0.03
TOMM34 (UniProt Q15785),inactive: 0.065,inactive: -0.121,inactive: 0.009,inactive: 0.16,inactive: -0.085,inactive: -0.024,inactive: 0.039,inactive: 0.102,inactive: 0.011,inactive: -0.131,inactive: 0.06,inactive: 0.047,inactive: -0.084,inactive: -0.084,inactive: -0.328,inactive: 0.031,inactive: 0.014,inactive: -0.009,inactive: -0.073,inactive: 0.006
TPST2 (UniProt O60704),inactive: 0.006,inactive: -0.223,inactive: 0.01,inactive: 0.049,inactive: -0.001,inactive: -0.001,inactive: 0.054,inactive: -0.008,inactive: 0.034,inactive: -0.017,inactive: 0.051,inactive: 0.026,inactive: -0.113,inactive: 0.189,inactive: 0.025,inactive: 0.001,inactive: 0.029,inactive: -0.061,inactive: 0.015,inactive: 0.185
TOR1AIP1 (UniProt Q5JTV8),inactive: 0.063,inactive: 0.017,inactive: -0.071,inactive: -0.004,inactive: 0.104,inactive: 0.077,,inactive: -0.028,inactive: -0.138,inactive: -0.082,inactive: 0.011,inactive: -0.024,inactive: 0.021,inactive: 0.078,inactive: -0.008,inactive: -0.182,inactive: 0.071,inactive: 0.104,inactive: -0.048,inactive: -0.014
TRAPPC3 (UniProt O43617),inactive: -0.003,inactive: 0.002,inactive: 0.074,inactive: -0.006,,inactive: -0.048,,inactive: 0.017,inactive: -0.008,inactive: -0.023,inactive: -0.033,inactive: 0.003,inactive: -0.007,inactive: -0.023,inactive: -0.021,inactive: -0.001,inactive: 0.025,inactive: 0.041,inactive: -0.047,inactive: 0.035
TOMM22 (UniProt Q9NS69),inactive: 0.045,inactive: 0.106,inactive: 0.156,inactive: -0.058,inactive: 0.17,inactive: 0.028,inactive: 0.103,inactive: 0.021,inactive: 0.053,inactive: 0.139,inactive: -0.033,inactive: -0.194,inactive: 0.044,inactive: 0.029,inactive: 0.011,inactive: -0.029,inactive: 0.103,inactive: 0.14,inactive: -0.002,inactive: 0.037
TSEN34 (UniProt Q9BSV6),inactive: 0.051,inactive: -0.042,inactive: 0.073,inactive: 0.314,inactive: 0.012,,inactive: 0.038,inactive: 0.118,inactive: -0.011,inactive: -0.041,inactive: -0.01,,inactive: -0.062,inactive: -0.086,inactive: -0.158,inactive: -0.004,inactive: 0.266,inactive: -0.025,inactive: -0.018,inactive: -0.137
TPR (UniProt P12270),inactive: -0.03,active: 0.297,inactive: 0.013,inactive: -0.083,,inactive: 0.008,active: 0.349,inactive: -0.027,inactive: 0.037,inactive: 0.223,inactive: -0.011,inactive: -0.004,inactive: 0.056,inactive: 0.04,inactive: 0.158,inactive: 0.047,inactive: -0.184,inactive: -0.017,inactive: 0.002,inactive: 0.089
TPRKB (UniProt Q9Y3C4),inactive: 0.027,inactive: 0.116,inactive: 0.048,inactive: -0.051,inactive: 0.015,inactive: 0,inactive: 0.027,inactive: 0.041,inactive: -0.016,inactive: 0.034,inactive: -0.025,inactive: 0.023,inactive: 0.023,inactive: 0.008,inactive: 0.026,inactive: 0.013,inactive: 0.027,inactive: 0.028,inactive: 0.019,inactive: 0.045
TRIP10 isoform 2 (UniProt Q15642),inactive: 0.132,inactive: 0.056,inactive: -0.007,inactive: 0.108,,inactive: 0.147,,inactive: -0.089,inactive: -0.035,inactive: 0.309,inactive: -0.019,inactive: 0.026,inactive: 0.005,inactive: -0.174,inactive: 0.035,inactive: -0.162,inactive: -0.033,inactive: -0.135,inactive: -0.04,inactive: 0.142
TOR1B (UniProt O14657),inactive: -0.007,inactive: 0.027,inactive: -0.013,inactive: 0.021,inactive: -0.086,inactive: 0.058,inactive: 0.012,inactive: 0.01,inactive: 0.017,inactive: -0.01,inactive: -0.041,inactive: -0.057,inactive: -0.095,inactive: 0.016,inactive: 0.006,inactive: -0.057,inactive: -0.007,inactive: -0.025,inactive: 0.061,inactive: -0.068
TOLLIP (UniProt Q9H0E2),inactive: 0.004,inactive: 0.109,inactive: 0.098,inactive: -0.027,inactive: 0.169,inactive: 0.048,inactive: 0.079,inactive: 0.037,inactive: -0.008,inactive: 0.038,inactive: -0.036,inactive: -0.013,inactive: 0.053,inactive: -0.047,inactive: -0.038,inactive: 0.105,inactive: 0.032,inactive: -0.061,inactive: 0.042,inactive: -0.011
TRAPPC10 (UniProt P48553),inactive: 0.041,inactive: -0.093,inactive: -0.048,inactive: 0.009,inactive: -0.012,inactive: 0.07,inactive: -0.045,inactive: 0.085,inactive: 0.031,inactive: -0.053,inactive: -0.138,inactive: 0.018,inactive: 0.014,inactive: -0.065,inactive: -0.094,inactive: 0.02,inactive: 0.044,inactive: -0.066,inactive: -0.001,inactive: -0.01
TOP2A isoform 4 (UniProt P11388),inactive: -0.071,inactive: -0.157,inactive: -0.337,inactive: 0.559,,inactive: 0.158,,inactive: 0.015,inactive: 0.362,inactive: -0.376,inactive: 0.308,inactive: 0.092,inactive: -0.119,inactive: 0.033,inactive: 0.102,inactive: -0.11,inactive: -0.29,inactive: -0.324,inactive: 0.104,inactive: -0.292
TRAPPC2L (UniProt Q9UL33),inactive: 0.009,inactive: -0.035,inactive: 0.054,inactive: 0.035,,inactive: -0.023,,inactive: 0.001,inactive: -0.143,inactive: 0.119,inactive: -0.042,inactive: -0.02,inactive: -0.062,inactive: -0.068,inactive: -0.118,inactive: 0.064,inactive: -0.041,inactive: -0.111,inactive: -0.111,inactive: 0.013
TRAP1 (UniProt Q12931),inactive: -0.011,inactive: 0.048,inactive: -0.001,inactive: -0.084,inactive: 0.019,inactive: -0.019,inactive: 0.001,inactive: -0.003,inactive: -0.025,inactive: -0.034,inactive: -0.064,inactive: -0.002,inactive: -0.014,inactive: 0.001,inactive: 0,inactive: -0.011,inactive: 0.023,inactive: 0.028,inactive: 0.014,inactive: 0.003

# In another format: entries from further up.
Target	log2 fold change [1]	log2 fold change (crizotinib)	log2 fold change [2]	log2 fold change [3]	log2 fold change (duvelisib)	log2 fold change (gandotinib)	log2 fold change (tozasertib)	log2 fold change [4]	log2 fold change (doramapimod)	log2 fold change (ispinesib)	log2 fold change (bafetinib)	log2 fold change [5]	log2 fold change (nilotinib)	log2 fold change [6]	log2 fold change (dasatinib)	log2 fold change [7]	log2 fold change [8]	log2 fold change [9]	log2 fold change (tipifarnib)	log2 fold change (mubritinib)
TPR (UniProt P12270)	inactive: -0.03	active: 0.297	inactive: 0.013	inactive: -0.083		inactive: 0.008	active: 0.349	inactive: -0.027	inactive: 0.037	inactive: 0.223	inactive: -0.011	inactive: -0.004	inactive: 0.056	inactive: 0.04	inactive: 0.158	inactive: 0.047	inactive: -0.184	inactive: -0.017	inactive: 0.002	inactive: 0.089
TRAPPC10 (UniProt P48553)	inactive: 0.041	inactive: -0.093	inactive: -0.048	inactive: 0.009	inactive: -0.012	inactive: 0.07	inactive: -0.045	inactive: 0.085	inactive: 0.031	inactive: -0.053	inactive: -0.138	inactive: 0.018	inactive: 0.014	inactive: -0.065	inactive: -0.094	inactive: 0.02	inactive: 0.044	inactive: -0.066	inactive: -0.001	inactive: -0.01
